# Values joined by “and” are separate entries in the source; they are usually repeats but may differ in a detail not shown here. Equal values may be shown once. Among all 300,000 compounds or so, about 5,400 (1.8%) were called active. The inconclusive results got no clear call from the source; some entries with a clear call stand among them for comparison. Calls follow the shape of the full dose curve; tested in HEK293 cells. Potencies beside an inconclusive call are fits to weak or partial responses and may not hold up.
# Experiment: qHTS for inhibitors of binding or entry into cells for Marburg Virus
# Settings: Marburg virus pseudotyped entry inhibition, cell reporter; activity change, negative = inhibition: at 37.8 µM (top of the series) unless noted
# % is scaled to controls: 0 for no effect and ±100 for the full control effect; potency is read from the fitted curve at half-maximal effect.
SMILES,Potency,"activity change, negative = inhibition"
O=S(=O)(CCCc1ccccc1)c1ncn[nH]1,"inconclusive: 7.08 µM [activator, partial curve, poor fit]",–
COc1ccc(OC)c(C(=O)CSc2nnc(Cc3cccs3)n2CCc2ccccc2)c1,"inconclusive: 13 µM [inhibitor, single point]",–
Cc1cccc(SCC(=O)Nc2ccc3c(c2)OCCO3)c1,"inconclusive: 5.62 µM [activator, single point]",–
CCS(=O)(=O)N1CCN(C(=O)c2ccco2)CC1,–,inactive: -11.4%
Cc1ccc(-c2nn(C)c(=O)c3ccccc23)cc1S(=O)(=O)NCCN(C)C,active: 11.2 µM,–
Cc1[nH]n(-c2ccccc2)c(=O)c1C(=O)c1ccc(Cl)cc1,"inconclusive: 35.5 µM [inhibitor, single point]",–
Cc1cc(C)nc(SCc2ccc(C(=O)N/N=C3\CCCC(=O)C3)cc2)n1,"inconclusive: 1.12 µM [inhibitor, full curve, poor fit]",–
COc1ccccc1CN(C)CC(=O)Nc1cccc(S(=O)(=O)N2CCCC2)c1,–,inactive: -23.9%
C=CCN1C(=O)N/C(=C/c2ccc(N3CCOCC3)o2)C1=O,"inconclusive: 3.26 µM [inhibitor, single point]",–
Cc1cccc(OCC(=O)Nc2c(C)ccc3nsnc23)c1C,–,inactive: 0.202% [at 46.1 µM]
CCCN(CCC)CC(O)CN1C(=O)N(CN2C(=O)N(CC(O)CN(CCC)CCC)C(=O)C2(C)C)C(C)(C)C1=O (centres undefined),"inconclusive: 7.94 µM [inhibitor, partial curve]",–
COc1ccc2c(c1)O[C@@H](c1ccc3c(c1)OCO3)[C@H](OC(=O)Nc1ccc(OC(F)F)cc1)C2=O,inactive,–
CCN(CC)CCN1C(=O)/C(=C\c2ccc(Cl)c([N+](=O)[O-])c2)SC1=Nc1ccc(OC)cc1,"inconclusive: 3.98 µM [inhibitor, full curve, poor fit]",–
O=C(c1cc(Br)c(Br)s1)N1CCN(C/C=C/c2ccccc2)CC1,"inconclusive: 22.4 µM [inhibitor, partial curve, poor fit]",–
CCn1c(=O)oc2cc(NC(=O)CCl)ccc21,"inconclusive: 12.6 µM [inhibitor, partial curve, poor fit]",–
c1ccc(-c2nc3c([nH]2)CCc2nonc2-3)cc1,"inconclusive: 3.55 µM [inhibitor, single point]",–
CC(=O)Nc1ccc(S(=O)(=O)N=S(C)C)cc1,inactive,–
CCOc1ccc(OCC)c(NC(=O)CN2CCN(c3cccc(C)c3)C(C)C2)c1 (centres undefined),"inactive and inconclusive: 2 µM [inhibitor, full curve, poor fit]",–
COC(=O)Cn1c(O)c(N=NC(=O)c2ccc3c(c2)OCO3)c2ccccc21,"inconclusive: 12.6 µM [activator, partial curve, poor fit]",–
O=C(NC(=S)NC1CC1)c1cccnc1,–,inactive: 27.2%
COc1cccc(N2CCN(C(=O)c3ccc4c(=O)n(CCc5ccccc5)c(=O)[nH]c4c3)CC2)c1,–,inactive: 0.823% [at 46.1 µM]
C=CCNCCCCOc1ccc(Br)cc1C,"inconclusive: 25.1 µM [inhibitor, single point]",–
Cc1cccc[n+]1CC(=O)/C=C1\N(C)c2ccccc2C1(C)C,"inconclusive: 35.5 µM [inhibitor, single point]",–

# Quoted at random: 3 compounds from above
SMILES,Potency,"activity change, negative = inhibition"
COc1cccc(N2CCN(C(=O)c3ccc4c(=O)n(CCc5ccccc5)c(=O)[nH]c4c3)CC2)c1,–,inactive: 0.823% [at 46.1 µM]
Cc1ccc(-c2nn(C)c(=O)c3ccccc23)cc1S(=O)(=O)NCCN(C)C,active: 11.2 µM,–
COc1ccc2c(c1)O[C@@H](c1ccc3c(c1)OCO3)[C@H](OC(=O)Nc1ccc(OC(F)F)cc1)C2=O,inactive,–

# Later entries

SMILES,Potency,"activity change, negative = inhibition"
Cc1nn(CC(=O)Nc2cccnc2)c(=O)c2ccccc12,–,inactive: -17.4% [at 46.1 µM]
CCCNS(=O)(=O)c1ccc(OCC(=O)N2CCN(Cc3ccc4c(c3)OCO4)CC2)cc1,inactive,–
CCCCOc1nc2ccccc2nc1[C@H](C#N)C(=O)NC1CCCCC1,–,inactive: 15.7%
COc1ccc(NC(=O)CCOc2ccccc2)cc1,"inconclusive: 5.62 µM [activator, partial curve, poor fit]",–
CC(CCc1ccccc1)N(C)CC(O)c1cccc([N+](=O)[O-])c1 (centres undefined),"inconclusive: 35.5 µM [inhibitor, single point]",–
CCCCN1C(=O)c2[nH]nc(-c3ccccc3O)c2C1c1cccc(OCc2ccccc2)c1 (centres undefined),"inconclusive: 20 µM [inhibitor, partial curve, poor fit]",–
O=C(COC(=O)c1cc(=O)c2ccccc2o1)NCC1CCCCC1,"inconclusive: 35.5 µM [activator, single point]",–
O=C(Cn1c(=O)oc2cc(S(=O)(=O)N3CCCCC3)ccc21)Nc1cccc(Cl)c1,"inconclusive: 6.31 µM [activator, single point]",–
CC1CC(C)CN(C(=O)c2cc3cc(Br)cc(Br)c3o2)C1 (centres undefined),"inconclusive: 35.5 µM [inhibitor, single point]",–
Cc1cc(C)c(Cn2c3ccccc3c3cnn(CC(=O)NC4CCC(C)CC4)c(=O)c32)c(C)c1 (centres undefined),–,inactive: 12.1% [at 46.1 µM]
COc1ccc2c(c1)OC(c1ccccc1)(C(F)(F)F)NC2=O (centres undefined),–,inactive: -4.25%
CCOC(=O)C1CCN(C(=O)COc2ccc(S(=O)(=O)N3CCCC3)cc2C)CC1,–,inactive: -13.8%
C=CCSc1nsc(NC(=O)Nc2cccc(C(C)=O)c2)n1,"inconclusive: 17.8 µM [inhibitor, partial curve, poor fit]",–
O=C1NC2(CCCCC2)C(=O)N1CCS(=O)(=O)Oc1ccc(Br)cc1,"inconclusive: 3.98 µM [inhibitor, partial curve, poor fit]",–
CN(C)c1ccc(/C=N/Nc2cc(N3CCOCC3)nc(N3CCOCC3)n2)cc1,"inconclusive: 20 µM [inhibitor, single point]",–
Clc1cccc(N2CCN(c3ncnc4c3nc3n4CCCCC3)CC2)c1,active: 2.82 µM,–
COc1cc(/C=N/O)cc(Br)c1OCC(=O)NCc1ccccc1,"inconclusive: 7.08 µM [inhibitor, partial curve, poor fit]",–
CCOC(=O)N1CCN(C(=O)c2ccc(-n3c(C)ccc3C)cc2)CC1,"inconclusive: 20 µM [inhibitor, single point]",–
CC(C)(C)n1cc(C(=O)c2ccccc2OCCCF)cn1,"inconclusive: 3.55 µM [activator, single point]",–
Cc1c(Br)c([N+](=O)[O-])nn1CC(=O)NCCc1c[nH]c2ccccc12,"inconclusive: 4.47 µM [inhibitor, single point]",–
CN(CCc1ccccn1)Cc1ccc(Cl)c(Cl)c1,–,inactive: 2.74% [at 46.1 µM]
CC(C)c1ccc(C2N3CC4(C)CN2CC(c2ccccc2)(C3)C4=O)cc1 (centres undefined),–,inactive: 5.22% [at 46.1 µM]
Cc1onc(-c2ccccc2Cl)c1C(=O)Nc1ccc(-c2nnc3n2CCCCC3)cc1,–,inactive: 13.2% [at 46.1 µM]

SMILES,Potency,"activity change, negative = inhibition"
N#CCc1ccc(OC(=O)c2cccnc2Cl)cc1,"inconclusive: 7.94 µM [activator, partial curve]",–
COc1cc(OC)cc(C(=O)Nc2cccc3c2CCCC3)c1,"inconclusive: 25.1 µM [inhibitor, single point]",–
COc1ccc(N2CCN(Cc3nc(N)nc(Nc4ccccc4OC)n3)CC2)cc1,active: 18.3 µM,–
CSc1ccc(Cl)c(C(=O)Nc2ccc(N3CCOCC3)cc2)c1,"inconclusive: 14.1 µM [activator, single point]",–
COc1ccccc1C(=O)NC(=S)N1CCCc2ccccc21,–,inactive: 25.9%
O=C(CC(C(=O)c1ccccc1)c1ccccc1)c1ccccc1 (centres undefined),"inconclusive: 10 µM [inhibitor, single point]",–
Cc1ccc(S(=O)(=O)N(C)/N=C2/C(=O)N(CC(=O)O)c3ccccc32)cc1,"inconclusive: 5.62 µM [activator, single point]",–
COc1ccc(CNCC(O)(c2ccccc2)c2ccccc2)cc1,"inconclusive: 25.1 µM [inhibitor, single point]",–
COc1ccc(COC(=O)NN=C2C[C@@H](O)[C@@H](O)[C@@H]3[C@H]4C(=O)N(C[C@@H]5CCCO5)C(=O)[C@@H]4CC[C@H]23)cc1,"inconclusive: 1.19 µM [inhibitor, partial curve, poor fit]",–
CCN(CC)S(=O)(=O)c1ccc2c(c1)N(CC(=O)NCCCN1CCN(c3ccccc3F)CC1)C(=O)CO2,"inconclusive: 12.6 µM [inhibitor, single point]",–
COc1ccc(-c2[nH]ncc2CN2CCC(OCc3cccnc3)CC2)c(F)c1,"inconclusive: 1.12 µM [activator, full curve, poor fit]",–
CC1CN(S(=O)(=O)c2cccc(C(=O)N3CCC(C(N)=O)CC3)c2)CC(C)O1 (centres undefined),"inconclusive: 0.251 µM [inhibitor, full curve, poor fit]",–
C=CCN(c1ccccc1)S(=O)(=O)c1cccc(C(=O)NCC2CCCO2)c1 (centres undefined),–,inactive: -0.891%
CC(C)(C)NS(=O)(=O)c1ccc(CCC(=O)Nc2ccc3c(c2)OCCO3)cc1,"inconclusive: 0.158 µM [inhibitor, full curve, poor fit]",–
Cc1cccc(C(=O)Nc2sc3c(c2C(=O)NCc2ccco2)CCCC3)c1,"inconclusive: 14.1 µM [activator, single point]",–
Cc1ccc2[nH]c(=O)c3cc(C(=O)N4CCN(c5ccccc5)CC4)sc3c2c1,"inconclusive: 35.5 µM [activator, single point]",–
CCCCCOc1ccc(CN2CCOCC2)cc1Cl,"inconclusive: 6.51 µM [activator, single point]",–
CC(=NN(Cc1ccccc1)c1ccccc1)c1ccccc1,–,inactive: 12%
COc1cccc(CNC(=O)CCCNC(=O)c2ccc(Cl)cc2)c1,–,inactive: 0.766% [at 46.1 µM]
O=C(COc1ccc(S(=O)(=O)N2CCCC2)cc1Cl)NC1CCCC1,–,inactive: -18%
COc1ccccc1CCNC(=O)c1ccc(OC)c(OC2CCN(C(C)C)CC2)c1,–,inactive: 29.2%
Cc1ccccc1OCC(=O)Nc1ccncc1,–,inactive: -9.59%
Cn1c(CNC(=O)c2ccco2)nnc1SCC(=O)N1CCN(c2ccccc2)CC1,–,inactive: -1.96% [at 46.1 µM]
